These are yes or no findings as the source states them, for the method shown. In cells and extracts the contact can be indirect. Some entries that bind do so weakly or less than the wild type.
Biological target: T1, Dishevelled Segment Polarity Protein 2 (DVL2) (mouse (endogenous in bone marrow-derived macrophages)) (UniProt Q60838)
T1 sequence: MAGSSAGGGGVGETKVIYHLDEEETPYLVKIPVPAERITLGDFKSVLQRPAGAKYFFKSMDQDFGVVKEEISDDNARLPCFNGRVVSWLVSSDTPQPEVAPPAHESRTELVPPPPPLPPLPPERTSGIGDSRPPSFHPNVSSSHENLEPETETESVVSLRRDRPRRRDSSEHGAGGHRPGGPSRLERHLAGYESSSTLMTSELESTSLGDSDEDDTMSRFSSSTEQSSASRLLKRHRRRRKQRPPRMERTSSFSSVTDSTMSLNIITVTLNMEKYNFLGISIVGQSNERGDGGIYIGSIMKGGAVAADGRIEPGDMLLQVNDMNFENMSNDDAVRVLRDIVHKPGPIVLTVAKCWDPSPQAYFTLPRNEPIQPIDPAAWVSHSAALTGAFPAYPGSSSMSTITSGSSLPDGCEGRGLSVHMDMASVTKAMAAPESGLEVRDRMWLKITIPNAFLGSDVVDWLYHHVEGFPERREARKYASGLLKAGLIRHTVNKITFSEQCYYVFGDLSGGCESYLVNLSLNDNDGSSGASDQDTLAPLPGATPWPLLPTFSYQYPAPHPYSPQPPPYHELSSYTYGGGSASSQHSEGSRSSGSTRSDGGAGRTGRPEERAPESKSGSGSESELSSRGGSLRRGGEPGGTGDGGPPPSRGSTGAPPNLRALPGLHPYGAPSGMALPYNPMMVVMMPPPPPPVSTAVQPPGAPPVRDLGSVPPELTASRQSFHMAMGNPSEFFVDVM
Test: co-IP; endogenous proteins in lysates of M1 and M2 macrophages; indicated antibodies and G/A beads, co-IP kit (absin, abs955); detection by western blot

binding: binds
B1: phosphoglycerate mutase 5 (PGAM5) (protein, UniProt Q8BX10 1-288)
chain: MAFRQALQLAACGLAGGSAAVLFSAVAVGKPRGGGDADTRATEPPAWTGARAGRGVWDTNWDRREPLSLINLKKRNVESGEDELTSRLDHYKAKATRHIFLIRHSQYHVDGSLEKDRTLTPLGREQAELTGLRLASLGLKFNKIVHSSMTRAVETTDIISKHLPGVSRVSTDLLREGAPIEPDPPVSHWKPEAVQYYEDGARIEAAFRNYIHRADARQEEDSYEIFICHANVIRYIVCRALQFPPEGWLRLSLNNGSITHLVIRPNGRVALRTLGDTGFMPPDKITRS

Reference: PMC10909856
